This data set is described as follows: general procedure: solution-phase peptide synthesis; EDC.HCl/HOBt; DIC/HOBt; OSu and OPfp active esters. The note with it: 2 TFA.
Setting [1] is: late stage modification step, HPLC.

As to “Boc-Glu(OBzl)-Glu(OBzl)-Ile^15-Pro-Glu(OBzl)-Glu(OBzl)-Tyr(Bzl)-Leu^20-OBzl (SEQ ID NO 8)”, the step yield (coupling step) was determined as 88%. For the same substance, the “crude HPLC purity” value (coupling step, HPLC) turned out to be 90%.
For “Boc-D-Phe^1-Pro-Arg-Pro-OH (SEQ ID NO 4)”, the “crude HPLC purity” value under setting [1] is 99.4%.
Turning to “Boc-Glu(OBzl)-Glu(OBzl)-Ile^15-Pro-OH.DCHA (SEQ ID NO 7)”, for the setting “coupling step, HPLC”, the “crude HPLC purity” value stood at 89%.
The substance “H-Glu(OBzl)-Glu(OBzl)-Tyr(Bzl)-Leu^20-OBzl.TFA (SEQ ID NO 6)” displayed a step yield (late stage modification step) of 96%. Moreover, under setting [1], the “crude HPLC purity” value is listed as 96%.
As to “H-Gly^5-Gly-Gly-Gly-Asn-Gly^10-OBzl.TFA (SEQ ID NO 5)”, the “crude HPLC purity” value under setting [1] is 97.5%.
For the substance “Boc-D-Phe^1-Pro-Arg-Pro-Gly^5-Gly-Gly-Gly-Asn-Gly^10-Asp(OBzl)-Phe-Glu(OBzl)-Glu(OBzl)-Ile^15-Pro-Glu(OBzl)-Glu(OBzl)-Tyr(Bzl)-Leu^20-OBzl (SEQ ID NO 1)”, the step yield (coupling step) was 50%. Besides, the “crude HPLC purity” value (coupling step, HPLC) is reported as 81.4%.
Turning to “Boc-Glu(OBzl)-Glu(OBzl)-Tyr(Bzl)-Leu^20-OBzl (SEQ ID NO 6)”, the “crude HPLC purity” value (coupling step, HPLC) worked out at 92%.
For the substance “H-Phe-Glu(OBzl)-Glu(OBzl)-Ile^15-Pro-Glu(OBzl)-Glu(OBzl)-Tyr(Bzl)-Leu^20-OBzl.TFA (SEQ ID NO 9)”, for the setting “late stage modification step”, the step yield stood at 99%. In addition, the “crude HPLC purity” value under setting [1] stood at 86.6%.
For “Boc-D-Phe^1-Pro-Arg-Pro-OBzl.HCl (SEQ ID NO 4)”, under “coupling step, HPLC”, the “crude HPLC purity” value came out at 96%.
Turning to “H-Glu(OBzl)-Glu(OBzl)-Ile^15-Pro-Glu(OBzl)-Glu(OBzl)-Tyr(Bzl)-Leu^20-OBzl.TFA (SEQ ID NO 8)”, the step yield (late stage modification step) is on record as 87%. The “crude HPLC purity” value under setting [1] was 88.9%.
As for “Boc-D-Phe^1-Pro-Arg-Pro-Gly^5-Gly-Gly-Gly-Asn-Gly^10-OBzl (SEQ ID NO 2)”, the step yield (coupling step) is listed as 76%. Further, under “coupling step, HPLC”, the “crude HPLC purity” value is on record as 83.4%.
The corresponding values for “Boc-Gly^5-Gly-Gly-Gly-Asn-Gly^10-OBzl (SEQ ID NO 5)” are 100% and 97.9%.
The substance “Boc-Phe-Glu(OBzl)-Glu(OBzl)-Ile^15-Pro-Glu(OBzl)-Glu(OBzl)-Tyr(Bzl)-Leu^20-OBzl (SEQ ID NO 9)” yielded a step yield (coupling step) of 95%. In addition, the “crude HPLC purity” value (coupling step, HPLC) is 87.9%.
Consider “Boc-D-Phe^1-Pro-Arg-Pro-Gly^5-Gly-Gly-Gly-Asn-Gly^10-OH (SEQ ID NO 2)”, for which, under setting [1], the “crude HPLC purity” value came to 80%.
In the case of “Boc-Gly^5-Gly-Gly-Gly-OH.TEA (SEQ ID NO 10)”, the step yield (late stage modification step) is given as 100%. Also, the “crude HPLC purity” value under setting [1] is 99.6%.
Take “H-D-Phe^1-Pro-Arg-Pro-Gly^5-Gly-Gly-Gly-Asn-Gly^10-Asp-Phe-Glu-Glu-Ile^15-Pro-Glu-Glu-Tyr-Leu^20-OH.2 TFA (Bivalirudin) (SEQ ID NO 1)”: the step yield was determined as 78% (late stage modification step) and 70% (purification step, based on bivalirudin content in the crude peptide). For the same substance, the “crude HPLC purity” value under setting [1] was determined as 65%. The “final HPLC purity” value (purification step, HPLC) amounted to 99%.

The record behind these values is patent US8921517 (dated 2014).
